Measured values from US20240034757A1.
These are yes or no findings as the source states them, for the method shown.

The chains behind the UniProt entries cited, without tags or fusion partners. Residues count along the entry.
UniProt P02775, residues 59-128: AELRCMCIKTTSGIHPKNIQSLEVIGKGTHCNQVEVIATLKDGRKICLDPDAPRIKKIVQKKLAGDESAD
UniProt P09341, residues 35-107: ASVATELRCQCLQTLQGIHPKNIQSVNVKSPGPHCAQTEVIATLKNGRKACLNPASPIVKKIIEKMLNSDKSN
UniProt P42830, residues 41-114: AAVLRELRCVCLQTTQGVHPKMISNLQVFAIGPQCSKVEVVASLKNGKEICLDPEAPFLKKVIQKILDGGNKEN
UniProt P02778, residues 22-98: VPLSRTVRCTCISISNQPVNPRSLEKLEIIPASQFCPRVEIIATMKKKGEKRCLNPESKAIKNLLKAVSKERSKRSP
UniProt Q07325, residues 23-125: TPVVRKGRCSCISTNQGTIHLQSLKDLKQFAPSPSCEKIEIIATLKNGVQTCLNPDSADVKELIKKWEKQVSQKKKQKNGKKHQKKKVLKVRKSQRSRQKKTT
UniProt O43927, residues 23-109: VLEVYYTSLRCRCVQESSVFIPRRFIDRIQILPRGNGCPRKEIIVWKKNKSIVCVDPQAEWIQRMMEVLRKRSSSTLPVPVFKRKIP
UniProt P80162, residues 38-114: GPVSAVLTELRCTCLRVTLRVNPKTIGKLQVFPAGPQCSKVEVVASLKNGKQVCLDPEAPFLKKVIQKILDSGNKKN
UniProt P48061, residues 22-89: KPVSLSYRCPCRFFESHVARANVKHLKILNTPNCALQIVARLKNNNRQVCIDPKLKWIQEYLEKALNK
UniProt P78423, residues 25-100: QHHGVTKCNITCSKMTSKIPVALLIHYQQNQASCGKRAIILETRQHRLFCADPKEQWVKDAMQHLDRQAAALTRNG
UniProt Q9NRJ3, residues 23-127: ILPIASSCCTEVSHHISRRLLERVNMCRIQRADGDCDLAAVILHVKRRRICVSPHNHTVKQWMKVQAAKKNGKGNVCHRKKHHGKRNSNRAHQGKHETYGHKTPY
UniProt O14625, residues 22-94: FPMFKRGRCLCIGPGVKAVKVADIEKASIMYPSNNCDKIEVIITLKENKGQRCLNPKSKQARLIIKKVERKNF
UniProt O95715, residues 35-111: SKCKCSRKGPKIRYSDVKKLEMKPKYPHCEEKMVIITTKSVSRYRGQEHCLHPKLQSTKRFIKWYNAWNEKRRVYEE
UniProt P10145, residues 28-99: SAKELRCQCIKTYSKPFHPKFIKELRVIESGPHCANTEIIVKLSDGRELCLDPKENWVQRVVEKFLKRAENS
UniProt P02776, residues 32-101: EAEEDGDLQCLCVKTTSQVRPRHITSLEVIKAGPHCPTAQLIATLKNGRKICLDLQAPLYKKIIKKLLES

What was measured:
XCL1_HUMAN (human) = target: T1, XCL1_HUMAN (human) (UniProt P47992); assay: BLI, empty cell the 12th table, row 59, column 6
T1 sequence: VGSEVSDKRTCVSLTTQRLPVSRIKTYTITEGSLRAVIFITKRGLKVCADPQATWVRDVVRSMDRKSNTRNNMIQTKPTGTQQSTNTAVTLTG

CXCL7_HUMAN (human) = CXCL7_HUMAN (human) (UniProt P02775); assay: BLI, empty cell the 12th table, row 48, column 6
CXCL1_HUMAN (human) = CXCL1_HUMAN (human) (UniProt P09341); assay: BLI, empty cell the 12th table, row 42, column 6
CXCL5_HUMAN (human) = CXCL5_HUMAN (human) (UniProt P42830); assay: BLI, empty cell the 12th table, row 46, column 6
CXCL10_HUMAN (human) = CXCL10_HUMAN (human) (UniProt P02778); assay: BLI, empty cell the 12th table, row 51, column 6
CXCL9_HUMAN (human) = CXCL9_HUMAN (human) (UniProt Q07325); assay: BLI, empty cell the 12th table, row 50, column 6
CXCL13_HUMAN (human) = CXCL13_HUMAN (human) (UniProt O43927); assay: BLI, empty cell the 12th table, row 54, column 6
CXCL6_HUMAN (human) = CXCL6_HUMAN (human) (UniProt P80162); assay: BLI, empty cell the 12th table, row 47, column 6
CXCL12_HUMAN (human) = CXCL12_HUMAN (human) (UniProt P48061); assay: BLI, empty cell the 12th table, row 53, column 6
CX3CL1_HUMAN (human) = CX3CL1_HUMAN (human) (UniProt P78423); assay: BLI, empty cell the 12th table, row 41, column 6
CCL28_HUMAN (human) [1] = target: CCL28_HUMAN (human) (UniProt Q9NRJ3); assay: BLI
CXCL11_HUMAN (human) = CXCL11_HUMAN (human) (UniProt O14625); assay: BLI, empty cell the 12th table, row 52, column 6
CXCL14_HUMAN (human) = CXCL14_HUMAN (human) (UniProt O95715); assay: BLI, empty cell the 12th table, row 55, column 6
CXCL8_HUMAN (human) = CXCL8_HUMAN (human) (UniProt P10145); assay: BLI, empty cell the 12th table, row 49, column 6
CCL28_HUMAN (human) [2] = target: CCL28_HUMAN (human) (UniProt Q9NRJ3); assay: BLI, empty cell the 12th table, row 40, column 6
CXCL4_HUMAN (human) = CXCL4_HUMAN (human) (UniProt P02776); assay: BLI, empty cell the 12th table, row 45, column 6

Measured: binding

B1: P1243_AMBAM (protein)
chain: RNHTEDNSTEYYDYEEARCACPARHLNNTNGTVLKLLGCHYFCNGTLCTAPDGYPCYNLTAQQVRTLTTYPNTSCAVGVCMKGTCVKNGTMEQCFKTP
no binding (tested: 300 nM): XCL1_HUMAN (human) | CXCL7_HUMAN (human) | CXCL1_HUMAN (human) | CXCL5_HUMAN (human) | CXCL10_HUMAN (human) | CXCL9_HUMAN (human) | CXCL13_HUMAN (human) | CXCL6_HUMAN (human) | CXCL12_HUMAN (human) | CX3CL1_HUMAN (human) | CCL28_HUMAN (human) [1] | CXCL11_HUMAN (human) | CXCL14_HUMAN (human) | CXCL8_HUMAN (human) | CCL28_HUMAN (human) [2] | CXCL4_HUMAN (human)
